# Measurements taken from US20190064149A1, “CANCER EXAMINATION METHOD AND EXAMINATION KIT” (THE UNIVERSITY OF TOKYO, priority 2013, published 2019).
# By UniProt entry, the sequences of proteins in these tests, tags left out. Residues count along the entry.
# UniProt P84095, residues 1-188: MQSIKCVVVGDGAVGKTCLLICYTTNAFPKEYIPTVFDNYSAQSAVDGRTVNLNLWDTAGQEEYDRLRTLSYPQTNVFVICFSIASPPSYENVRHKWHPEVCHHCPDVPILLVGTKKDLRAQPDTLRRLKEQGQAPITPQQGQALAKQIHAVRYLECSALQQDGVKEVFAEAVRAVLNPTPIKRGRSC
# Results are given in words; binding and its absence hold for the method and conditions named. Binding seen in cells or lysates may run through a third protein. Some results given as binding are weak or reduced against the parent protein; the word gives no strength. Where a sequence is shown, tags or fusion partners need not be part of it.
# Molecular target: RhoG (UniProt P84095)
# Experiment: pull-down with ELMO2/GST on glutathione beads from RIPA lysate, western blotting
binder,measurement,value
"fusion protein of ELMO2 and GST (protein, UniProt Q96JJ3 1-362, looked up, not shown: a dimerising Fc or GST) MPPPSDIVKVAIEWPGANAQLLEIDQKRPLASIIKEVCDGWSLPNPEYYTLRYADGPQLYITEQTRSDIKNGTILQLAISPSRAARQLMERTQSSNMETRLDAMKELAKLSADVTFATEFINMDGIIVLTRLVESGTKLLSHYSEMLAFTLTAFLELMDHGIVSWDMVSITFIKQIAGYVSQPMVDVSILQRSLAILESMVLNSQSLYQKIAEEITVGQLISHLQVSNQEIQTYAIALINALFLKAPEDKRQDMANAFAQKHLRSIILNHVIRGNRPIKTEMAHQLYVLQVLTFNLLEERMMTKMDPNDQAQRDIIFELRRIAFDAESDPSNAPGSGTEKRKAMYTKDYKMLGFTNHINPAM",binding,binds
